From PubChem BioAssay AID624297 (National Center for Advancing Translational Sciences (NCATS), 2012)
In all, about 340,000 compounds went through this assay and about 6,200 (1.8%) were called active. This list was built around the results that the source calls inconclusive (neither active nor inactive); the mix of calls is not that of the screen. Calls follow the shape of the dose curve; as a rule, active = well fitted activation curve with a large enough effect; inconclusive = small, poorly fitted or top-dose-only effect; inactive = no such curve, though single readings can be large or run the other way. A potency beside an inconclusive call is a rough fit, not a confirmed value.

Test: A quantitative high throughput screen for small molecules that induce DNA re-replication in SW480 colon adenocarcinoma cells. Also: nearly all actives have a fitted effect of over 55% in size. As to re-replication activation: % of control where 0% means no effect.
Conditions: Hoechst DNA content imaging, 48 h; re-replication activation: at 46.1 µM (top of the series) unless noted
How it was run: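 Treated cells incubate 48 hr (37 C, 5% CO2), are stained 40 min with Hoechst, and nuclear fluorescence is enumerated; a rise in nuclei with high DNA signal marks re-replication.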
Potency is read from the fitted curve at half-maximal effect.

Row | SMILES | re-replication activation | Potency
1 | CCOC(=O)CNc1ccc(C(=O)OCC)cc1[N+](=O)[O-] | inactive: -16.9% | –
2 | COc1ccc(OCC(CO)N2CCN(c3ccccc3)CC2)cc1 (stereo unspecified) | inactive: -3.95% | –
3 | COc1cc(CN2CCN(S(=O)(=O)c3ccc(F)cc3)CC2)cc(OC)c1OC | – | inconclusive: 29.1 µM [activator, single point]
4 | Cc1cc(-n2c(=O)c(C#N)cc3c(=O)n4cccc(C)c4nc32)no1 | – | inconclusive: 2.06 µM [activator, full curve]
5 | CCOc1ccc(C(=O)NN2C(=S)NC(C)(C)C=C2C)cc1 | inactive: -15.1% | –
6 | CCc1c(O)nc(SCC(=O)Nc2ccccc2)n(-c2ccccc2)c1=O | – | active: 20.6 µM
7 | CC(=O)NC(NC(=S)Nc1ccccc1Br)C(Cl)(Cl)Cl (stereo unspecified) | – | inconclusive: 20.6 µM [activator, single point]
8 | COc1cc(Cl)cc(/C=C/c2ccc3cccc(O)c3n2)c1OC | – | inconclusive: 23.1 µM [activator, single point]
9 | O=C(c1ccncc1)N1N=C(c2ccc(Cl)cc2)CC1c1ccccc1O (stereo unspecified) | – | inconclusive: 18.4 µM [activator, single point]
10 | O=C1C(=O)N(Cc2cccs2)c2ccccc21 | – | inconclusive: 29.1 µM [activator, single point]
11 | c1ccc(-c2noc(CN3CCN(c4cnccn4)CC3)n2)cc1 | – | inconclusive: 3.26 µM [activator, partial curve, poor fit]
12 | COc1ccc(C(=O)COC(=O)/C=C/c2ccccc2)c(OC)c1 | – | inconclusive: 29.1 µM [activator, single point]
13 | CSc1nnc(-c2cccs2)n1-c1ccccc1 | inactive: 11.6% | –
14 | COc1cc(CN(CCN(C)C)Cc2ccccc2)ccc1OCc1ccccc1 | – | inconclusive: 29.1 µM [activator, single point]
15 | Cc1cc(C)c(CN2CCN(C(=O)Cn3cnc(C(=O)Nc4ccc(C)c(C)c4)n3)CC2)c(C)c1 | – | inconclusive: 20.6 µM [activator, partial curve, poor fit]
16 | COc1ccc2c(C)c(CC(=O)N3CCN(C(=O)C4COc5ccccc5O4)CC3)c(=O)oc2c1 (stereo unspecified) | – | inconclusive: 29.1 µM [activator, single point]
17 | COC(=O)NC(=S)Nc1ccc(Oc2ccc(Cl)cc2Cl)c(Cl)c1 | – | inconclusive: 20.6 µM [activator, single point]
18 | Cc1cccc(C)c1NC(=O)CN(C)C(=O)C1CCCCC1 | – | inconclusive: 0.731 µM [activator, partial curve, poor fit]

Row | SMILES | re-replication activation | Potency
19 | N/C(=N\OC(=O)c1ccccc1Br)c1cccc([N+](=O)[O-])c1 | inactive: -6.14% | –
20 | CCN(CC)CCNC(=O)c1cc(Br)c(N)cc1OC | – | inactive
21 | CCN1C(=O)/C(=C2\Sc3ccccc3N2CC)OC1=S | – | inconclusive: 18.4 µM [activator, single point]
22 | CN(C(=O)c1cccc(NC(=O)Cc2ccc(NC(=O)C3CCCN(C(=O)C4CCC4)C3)cc2)c1)C1CCC1 (stereo unspecified) | inactive: -5.24% | –
23 | CCOc1ccc2nc(N3CCCN(C(=O)Nc4ccccc4C)CC3)c(C#N)cc2c1 | – | inconclusive: 18.4 µM [activator, single point]
24 | Cc1ccc(CNC(=O)c2cc3c(=O)n4ccccc4nc3n(CC3CCCO3)c2=N)cc1 (stereo unspecified) | – | inconclusive: 2.06 µM [activator, partial curve]
25 | Cc1cc(NC(c2cccnc2)c2ccc3cccnc3c2O)no1 (stereo unspecified) | – | active: 1.46 µM
26 | COc1cccc(-c2cc(C(F)(F)F)nc(-n3cc(C)cn3)n2)c1 | inactive: 3.28% | –
27 | Cc1ccc(CC2(c3ccccc3)NC(=O)NC2=O)cc1 (stereo unspecified) | – | inconclusive: 29.1 µM [activator, single point]
28 | Cc1cc(C)c2c(c1)N[C@H](c1cccs1)[C@@H]1CCO[C@H]21 | inactive: -7.61% | –
29 | CC(=O)N1N=C(c2cccs2)CC1c1cc2cc(C)ccc2nc1Cl (stereo unspecified) | inactive: -24.8% | –
30 | COc1ccc(Br)cc1CN(C)CC(=O)Nc1cccc(S(=O)(=O)N2CCCC2)c1 | – | inconclusive: 20.6 µM [activator, partial curve, poor fit]
31 | Cc1ccc2occ(/C=N/NC(=O)c3ccccc3C)c(=O)c2c1 | – | inconclusive: 9.2 µM [activator, partial curve, poor fit]
32 | COc1ccccc1C(=O)COC(=O)c1c(-c2ccccc2)noc1C | – | inconclusive: 0.58 µM [activator, partial curve, poor fit]
33 | O=C(CNC(=O)Cc1ccc(Cl)cc1)NCc1ccco1 | inactive: 2.09% | –
34 | CCOc1ccc(N(CC(=O)Nc2cccc(F)c2)S(=O)(=O)c2c(C)noc2C)cc1 | inactive: 18.4% | –
35 | Cc1ccc(-c2nn(-c3ccccc3)cc2C(=O)NCCCN2CCOCC2)cc1 | inactive: -9.19% | –
36 | Cc1ccc(-n2ncc3c2CC(C)(C)CC3NC(=O)CCn2cncn2)cc1 (stereo unspecified) | inactive: -4.16% | –

Structures shown so far that have a cyano group:
Row | SMILES | re-replication activation | Potency
4 | Cc1cc(-n2c(=O)c(C#N)cc3c(=O)n4cccc(C)c4nc32)no1 | – | inconclusive: 2.06 µM [activator, full curve]
23 | CCOc1ccc2nc(N3CCCN(C(=O)Nc4ccccc4C)CC3)c(C#N)cc2c1 | – | inconclusive: 18.4 µM [activator, single point]
